Source: PubChem BioAssay AID504804 (Drosophila RNAi Screening Center, 2011)
In all, the deposit lists about 19,000 reagents; below is an unselected part of those that have a named target and a result. In the full data, 47 (0.25%) got an active call. 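Signals are raw, not normalised; exact z-scores behind calls not deposited; actives needed confirmation, so some wells reaching 2 SD are inactive.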 No sequences are given here.

- Purpose: 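Fly genes whose loss lessens doxorubicin-driven cell death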 (primary screen)
- Cells: Drosophila Kc cells
- Reagent: long dsRNA against Drosophila genes, 0.5 µg dsRNA per well
- Timing: 96 h (48 h knock-down, then 48 h drug)
- Treatment: doxorubicin 5 µg/ml for 48 h, added 48 h after dsRNA
- Measurement: 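Luminescent ATP counts per replicate, not normalised, reflecting viable cells after 48 h dsRNA knock-down followed by 48 h of 5 µg/ml doxorubicin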
- Direction: raw ATP luminescence: higher = more viable cells, protection from doxorubicin
- Hit rule: 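z-score of 2 or more over plate mean in both duplicates, retained only when retests and separate dsRNAs confirm the protection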

gene | SD above plate mean | raw ATP luminescence, replicate 1 | raw ATP luminescence, replicate 2 | activity call
CG5823 | – | 53537 | 38090 | inactive
Chmp1 (Charged multivesicular body protein 1) | – | 23763 | 30267 | inactive
MRP (Multidrug-Resistance like Protein 1) | – | 1.00e5 | 80867 | inactive
sle (slender lobes) | – | 41650 | 18527 | inactive
CG32344 | – | 61703 | 63853 | inactive
Mis12 | – | 58580 | 61297 | inactive
tadr (torn and diminished rhabdomeres) | – | 78270 | 70250 | inactive
Ets97D (Ets at 97D) | – | 51790 | 38440 | inactive
CG7406 | – | 2.51e5 | 2.55e5 | inactive
CG17803 | – | 28470 | 31470 | inactive
GstO2 (Glutathione S transferase O2) | – | 36070 | 37917 | inactive
Jon99Ci (Jonah 99Ci) | – | 45230 | 23730 | inactive
geminin | – | 56803 | 53830 | inactive
CG5217 | – | 43040 | 54680 | inactive
Hira | – | 32760 | 49400 | inactive
CG31560 | – | 69663 | 65117 | inactive
Ugt303A1 (UDP-glycosyltransferase family 303 member A1) | – | 44327 | 46847 | inactive
CG15209 | – | 3.68e5 | 3.17e5 | inactive
fliI (flightless I) | – | 1.47e5 | 1.84e5 | inactive
CG31788 | – | 2.39e5 | 1.92e5 | inactive
Arc1 (Activity-regulated cytoskeleton associated protein 1) | at least 3 SD above plate mean | 1.14e5 | 1.03e5 | inactive
Alg2 (ALG2, alpha-1,3/1,6-mannosyltransferase) | – | 42260 | 66430 | inactive
GAPsec (GTPase activating protein, SECIS-dependent read-through) | – | 37207 | 34810 | inactive
CG13048 | – | 48003 | 39177 | inactive
Ing5 (Inhibitor of growth family member 5) | – | 80300 | 88297 | inactive
CG13308 | – | 75877 | 84763 | inactive
CG33635 | – | 2.32e5 | 2.53e5 | inactive
CG12998 | – | 3.02e5 | 3.14e5 | inactive
Stam (Signal transducing adaptor molecule) | – | 98537 | 63827 | inactive
disco (disconnected) | – | 3.48e5 | 2.69e5 | inactive
dop (drop out) | – | 28753 | 24767 | inactive
CG12519 | – | 62560 | 64113 | inactive
Vm26Aa (Vitelline membrane 26Aa) | – | 20280 | 29633 | inactive
CG18596 | – | 43303 | 35907 | inactive

Laid out differently: 4 of the entries above
gene,SD above plate mean,"raw ATP luminescence, replicate 1","raw ATP luminescence, replicate 2",activity call
"GAPsec (GTPase activating protein, SECIS-dependent read-through)",,37207,34810,inactive
CG13048,,48003,39177,inactive
Ing5 (Inhibitor of growth family member 5),,80300,88297,inactive
CG13308,,75877,84763,inactive
